In patent US10800834B2, “HER-1, HER-3 and IGF-1R compositions and uses thereof” (OHIO STATE INNOVATION FOUNDATION, priority 2013, dated 2020):
Some results were stated once for a whole list of compounds, not compound by compound.

Tested on: New Zealand white outbred rabbits
Assay: Immunogenicity of MVF HER-3 peptide constructs in rabbits (ELISA titers)
Assay type: in vivo, rabbit
Details: sera of rabbits immunized with MVF HER-3 peptides; data not shown
Method: Two female New Zealand white outbred rabbits (Harlan) were immunized intramuscularly with 1 mg of MVF HER-3 (237-269) or MVF HER-3 (461-479) peptide dissolved in 500 μL PBS and emulsified in 500 μL of Montanide ISA720 vehicle with 100 μg muramyl dipeptide adjuvant, nor-MDP (N-acetylglucosamine-3yl-acetyl-L-alanyl-D-isoglutamine). Subsequent booster injections were given every three weeks after primary immunization. Sera of rabbits immunized with either MVF peptide were collected weekly, and complement was inactivated by heating to 56° C. for 30 minutes. The titer of anti-HER-3 peptide antibodies were quantified by ELISA. The MVF HER-3 (237-269) and MVF HER-3 (461-479) peptides were highly immunogenic by three weeks after the third immunization. Antibody titers against MVF HER-3 (461-479) and MVF HER-3 (237-269) were ≥32,000 and ≥128,000, respectively (FIGS. 9 A & B). High antibody titers were also generated against B cell epitope constructs. HER-3 (461-479) and HER-3 (237-269) antibody titers were ≥16,000 and ≥128,000, respectively (Data not shown). Total IgG was purified from high-titered sera on a protein A/G column (Pierce, Rockford, Ill.) and eluted antibodies were concentrated and exchanged in PBS using 100 kDa cutoff centrifuge filter units (Millipore). Antibody concentrations were determined by Coomassie plus protein assay reagent kit (Pierce).

VPRCPQPLVYNKLTFQLEPNPHTKYQYGGVCVA (N-acetyl, C-amide; listed as Homo sapiens) [HER-3 (237-269), peptide mimic acetylated and amidated]
antibody titers against B cell epitope constructs: ≥ 128,000
